Experimental findings from PMC4272302 are described below.

Results are given in words; binding and its absence hold for the method and conditions named. For some of these results: Binding seen in cells or lysates may run through a third protein. Some results given as binding are weak or reduced against the parent protein; the word gives no strength. For some of these results: Sequences can lack the tags named with a protein.

In one test the target is LexA-MAP6d1 (mouse) (UniProt Q14BB9). Description: two-hybrid; yeast two-hybrid, LexA bait (pLex10) and GAD prey (pAct2); growth on medium lacking leucine, tryptophan and histidine, and β-galactosidase staining.
For the next test, the target named is MAP6d1-myc (mouse) (UniProt Q14BB9). Description: co-IP; COS-7 cells co-transfected with a GFP-tagged and a myc-tagged MAP6d1; lysed 15 h after transfection in IP buffer (50 mM Tris, 150 mM NaCl, 0.05% deoxycholate, 1% Triton X-100, 10% glycerol, pH 8.0); IP with anti-myc (Protein G-Sepharose) or anti-GFP (Protein A-Sepharose), 1 h at 4°C, five washes; western blot. (In general: In western blotting, separated proteins are transferred to a membrane and probed.)

In a further test the target is T1, MAP6d1-GGG-myc (mouse) (UniProt Q14BB9).
T1 sequence: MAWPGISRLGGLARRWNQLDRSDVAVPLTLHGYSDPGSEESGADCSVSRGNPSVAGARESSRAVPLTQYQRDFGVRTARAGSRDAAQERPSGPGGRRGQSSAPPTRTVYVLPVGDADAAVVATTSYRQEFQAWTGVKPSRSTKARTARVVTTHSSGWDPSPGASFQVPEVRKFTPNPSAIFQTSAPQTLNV
Described as above.

A further test addresses MAP6d1-GFP (mouse) (UniProt Q14BB9). The description is as above.

Regarding GAD-MAP6d1 (from UniProt Q14BB9 1-191), in the test with LexA-MAP6d1 (mouse), the binding result is given as “binds”.
For MAP6d1-GFP (from UniProt Q14BB9 1-191), the binding result with MAP6d1-myc (mouse) and with MAP6d1-GGG-myc (mouse) was “binds” throughout.
MAP6d1-myc (from UniProt Q14BB9 1-191): the binding result with MAP6d1-GFP (mouse) is “binds”.
